Assay results as given in the supplement of paper PMC4604168 (melanoma cell lines).
The list shows a part of the results. Many values rest on one well or one pass, so single values are uncertain.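 The apoptosis fraction was the count of cleaved-PARP antibody-stained nuclei relative to all DNA-stained nuclei, imaged in 1,536-well plates. Screening doses were set so most cells survived, and baseline and induced cleaved-PARP levels vary greatly across cell lines.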

tested on: COLO792; assay: cleaved PARP positive nuclei fraction relative to DMSO control; melanoma cells; higher = more apoptosis; details: library dose: low library concentration; 72 h

| Structure (SMILES) | cleaved PARP positive nuclei fraction [%] |
| --- | --- |
| C[C@@H](N)c1ccc(C(=O)Nc2ccnc3[nH]ccc23)cc1 + Cn1c(=O)n(-c2ccc(C(C)(C)C#N)cc2)c2c3cc(-c4cnc5ccccc5c4)ccc3ncc21 [NVP-BEZ235] (first compound 0.4 µM, partner dose 0.004 µM) | 140 |
| Cn1cnc2c(F)c(Nc3ccc(Br)cc3Cl)c(C(=O)NOCCO)cc21 [selumetinib] + Cn1c(Nc2ccc(C(F)(F)F)cc2)nc2cc(Oc3ccnc(-c4ncc(C(F)(F)F)[nH]4)c3)ccc21 [CHIR265] (first compound 0.015 µM, partner dose 0.08 µM) | 641 |
| NC1(c2ccc(-c3nc4ccn5c(=O)[nH]nc5c4cc3-c3ccccc3)cc2)CCC1 + Clc1ccc(Nc2nnc(Cc3ccncc3)c3ccccc23)cc1 [vatalanib] (first compound 0.4 µM, partner dose 2 µM) | 132 |
| CCCCCCCCc1ccc(CCC(N)(CO)CO)cc1 [fingolimod] + OCc1c[nH]c2ccccc12 [Indole-3-carbinol] (first compound 2 µM, partner dose 0.8 µM) | 114 |
| Cn1sc(=O)n(Cc2ccccc2)c1=O + Clc1ccc(Nc2nnc(Cc3ccncc3)c3ccccc23)cc1 [vatalanib] (first compound 0.4 µM, partner dose 2 µM) | 77.5 |
| NC(=O)c1ccc(N(C(N)=O)c2c(F)cccc2F)nc1-c1ccc(F)cc1F + CC(=O)c1c(C)c2cnc(Nc3ccc(N4CCNCC4)cn3)nc2n(C2CCCC2)c1=O [palbociclib] (first compound 0.4 µM, partner dose 0.04 µM) | 70.6 |
| CC1(C)CCC(c2ccc(Cl)cc2)=C(CN2CCN(c3ccc(C(=O)NS(=O)(=O)c4ccc(N[C@H](CCN5CCOCC5)CSc5ccccc5)c(S(=O)(=O)C(F)(F)F)c4)cc3)CC2)C1 + CNC(=O)c1cc(Oc2ccc(NC(=O)Nc3ccc(Cl)c(C(F)(F)F)c3)cc2)ccn1 [sorafenib] (first compound 0.4 µM, partner dose 0.4 µM) | 180 |
| NC(=O)c1ccc(N(C(N)=O)c2c(F)cccc2F)nc1-c1ccc(F)cc1F + COc1ccc(C2=N[C@@H](c3ccc(Cl)cc3)[C@@H](c3ccc(Cl)cc3)N2C(=O)N2CCNC(=O)C2)c(OC(C)C)c1 [Nutlin-3] (first compound 0.4 µM, partner dose 0.1 µM) | 56.6 |
| C[C@]1(O)C[C@@H](c2nc(-c3ccc4ccc(-c5ccccc5)nc4c3)c3c(N)nccn32)C1 + Cn1c(=O)n(-c2ccc(C(C)(C)C#N)cc2)c2c3cc(-c4cnc5ccccc5c4)ccc3ncc21 [NVP-BEZ235] (first compound 0.4 µM, partner dose 0.004 µM) | 103 |
| CC1(C)CCC(c2ccc(Cl)cc2)=C(CN2CCN(c3ccc(C(=O)NS(=O)(=O)c4ccc(N[C@H](CCN5CCOCC5)CSc5ccccc5)c(S(=O)(=O)C(F)(F)F)c4)cc3)CC2)C1 + Nc1ncn([C@H]2C[C@H](O)[C@@H](CO)O2)c(=O)n1 [decitabine] (first compound 0.4 µM, partner dose 0.1 µM) | 765 |

tested on: COLO800; assay: as above; details: library dose: low library concentration; 72 h

| Structure (SMILES) | cleaved PARP positive nuclei fraction [%] |
| --- | --- |
| CC1(C)CCC(c2ccc(Cl)cc2)=C(CN2CCN(c3ccc(C(=O)NS(=O)(=O)c4ccc(N[C@H](CCN5CCOCC5)CSc5ccccc5)c(S(=O)(=O)C(F)(F)F)c4)cc3)CC2)C1 + Cc1cn(-c2cc(NC(=O)c3ccc(C)c(Nc4nccc(-c5cccnc5)n4)c3)cc(C(F)(F)F)c2)cn1 [nilotinib] (first compound 0.4 µM, partner dose 0.2 µM) | 241 |
| C[C@@H](N)c1ccc(C(=O)Nc2ccnc3[nH]ccc23)cc1 + CCCCCCCCc1ccc(CCC(N)(CO)CO)cc1 [fingolimod] (first compound 0.4 µM, partner dose 2 µM) | 133 |
| Cn1cnc2c(F)c(Nc3ccc(Br)cc3Cl)c(C(=O)NOCCO)cc21 [selumetinib] + CCCCCCCCc1ccc(CCC(N)(CO)CO)cc1 [fingolimod] (first compound 0.015 µM, partner dose 2 µM) | 34.5 |
| C[C@]1(O)C[C@@H](c2nc(-c3ccc4ccc(-c5ccccc5)nc4c3)c3c(N)nccn32)C1 + Nc1ccn([C@@H]2O[C@H](CO)[C@@H](O)C2(F)F)c(=O)n1 [gemcitabine] (first compound 0.4 µM, partner dose 0.0004 µM) | 281 |
| CCCCCCCCc1ccc(CCC(N)(CO)CO)cc1 [fingolimod] + Nc1nc(F)nc2c1ncn2[C@@H]1O[C@H](CO)[C@@H](O)[C@@H]1O [fludarabine] (first compound 2 µM, partner dose 0.2 µM) | 105 |
| CCCCCCCCc1ccc(CCC(N)(CO)CO)cc1 [fingolimod] + C#Cc1cccc(Nc2ncnc3cc(OCCOC)c(OCCOC)cc23)c1 [erlotinib] (first compound 2 µM, partner dose 0.8 µM) | 116 |
| C[C@]1(O)C[C@@H](c2nc(-c3ccc4ccc(-c5ccccc5)nc4c3)c3c(N)nccn32)C1 + O=C(O)[C@@H]1[O][Sb](=[O])([O][Sb]2(=[O])[O][C@H]([C@H](O)CO)[C@H](O)[C@H](C(=O)O)[O]2)[O][C@H]([C@H](O)CO)[C@@H]1O [stibogluconate] (first compound 0.4 µM, partner dose 2 µM) | 60 |
| CC1(C)CCC(c2ccc(Cl)cc2)=C(CN2CCN(c3ccc(C(=O)NS(=O)(=O)c4ccc(N[C@H](CCN5CCOCC5)CSc5ccccc5)c(S(=O)(=O)C(F)(F)F)c4)cc3)CC2)C1 + COc1ccc(Cl)c(Nc2nc3ccccc3nc2NS(=O)(=O)c2cccc(NC(=O)C(C)(C)N)c2)c1 [XL147] (first compound 0.4 µM, partner dose 0.8 µM) | 109 |
| CC(=O)O[C@@]12CO[C@@H]1C[C@H](O)[C@@]1(C)C(=O)[C@H](O)C3=C(C)[C@@H](OC(=O)[C@H](O)[C@@H](NC(=O)OC(C)(C)C)c4ccccc4)C[C@@](O)([C@@H](OC(=O)c4ccccc4)[C@H]21)C3(C)C [Docetaxel] + Cc1nc(Nc2ncc(C(=O)Nc3c(C)cccc3Cl)s2)cc(N2CCN(CCO)CC2)n1 [dasatanib] (first compound 0.0001 µM, partner dose 0.004 µM) | 281 |
| CN(c1ncccc1CNc1nc(Nc2ccc3c(c2)CC(=O)N3)ncc1C(F)(F)F)S(C)(=O)=O + C=CCNC1=C2C[C@@H](C)C[C@H](OC)[C@H](O)[C@@H](C)/C=C(\C)[C@H](OC(N)=O)[C@@H](OC)/C=C\C=C(/C)C(=O)NC(=CC1=O)C2=O [Tanespimycin] (first compound 0.08 µM, partner dose 0.002 µM) | 86.3 |
| C[C@]1(O)C[C@@H](c2nc(-c3ccc4ccc(-c5ccccc5)nc4c3)c3c(N)nccn32)C1 + CCN(CC)CCNC(=O)c1c(C)[nH]c(/C=C2\C(=O)Nc3ccc(F)cc32)c1C [sunitinib] (first compound 0.4 µM, partner dose 0.4 µM) | 271 |
| C[C@]1(O)C[C@@H](c2nc(-c3ccc4ccc(-c5ccccc5)nc4c3)c3c(N)nccn32)C1 + C[C@]1(c2nc3c(C(N)=O)cccc3[nH]2)CCCN1 [Veliparib] (first compound 0.4 µM, partner dose 1.4 µM) | 130 |
| CCN(CC)CCNC(=O)c1c(C)[nH]c(/C=C2\C(=O)Nc3ccc(F)cc32)c1C [sunitinib] + C[C@]1(c2nc3c(C(N)=O)cccc3[nH]2)CCCN1 [Veliparib] (first compound 0.4 µM, partner dose 1.4 µM) | 87.3 |
| CC1(C)CCC(c2ccc(Cl)cc2)=C(CN2CCN(c3ccc(C(=O)NS(=O)(=O)c4ccc(N[C@H](CCN5CCOCC5)CSc5ccccc5)c(S(=O)(=O)C(F)(F)F)c4)cc3)CC2)C1 + CN1CCN(c2ccc3nc(-c4c(N)c5c(F)cccc5[nH]c4=O)[nH]c3c2)CC1 [Dovitinib] (first compound 0.4 µM, partner dose 0.1 µM) | 96.5 |
| Cn1sc(=O)n(Cc2ccccc2)c1=O + Cn1c(Nc2ccc(C(F)(F)F)cc2)nc2cc(Oc3ccnc(-c4ncc(C(F)(F)F)[nH]4)c3)ccc21 [CHIR265] (first compound 0.4 µM, partner dose 0.08 µM) | 70.8 |
| Cn1cnc2c(F)c(Nc3ccc(Br)cc3Cl)c(C(=O)NOCCO)cc21 [selumetinib] + C#Cc1cccc(Nc2ncnc3cc(OCCOC)c(OCCOC)cc23)c1 [erlotinib] (first compound 0.015 µM, partner dose 0.8 µM) | 29.4 |
| NC(=O)c1ccc(N(C(N)=O)c2c(F)cccc2F)nc1-c1ccc(F)cc1F + C[C@@H](Oc1cc(-c2cnn(C3CCNCC3)c2)cnc1N)c1c(Cl)ccc(F)c1Cl [Crizotinib] (first compound 0.4 µM, partner dose 0.2 µM) | 43.3 |
| CCN(CC)CCNC(=O)c1c(C)[nH]c(/C=C2\C(=O)Nc3ccc(F)cc32)c1C [sunitinib] + Nc1ccn([C@@H]2O[C@H](CO)[C@@H](O)C2(F)F)c(=O)n1 [gemcitabine] (first compound 0.4 µM, partner dose 0.0004 µM) | 43.6 |
| CC1(C)CCC(c2ccc(Cl)cc2)=C(CN2CCN(c3ccc(C(=O)NS(=O)(=O)c4ccc(N[C@H](CCN5CCOCC5)CSc5ccccc5)c(S(=O)(=O)C(F)(F)F)c4)cc3)CC2)C1 + CS(=O)(=O)CCNCc1ccc(-c2ccc3ncnc(Nc4ccc(OCc5cccc(F)c5)c(Cl)c4)c3c2)o1 [lapatinib] (first compound 0.4 µM, partner dose 0.8 µM) | 131 |

Exported in CSV form: entries from further up.
Structure (SMILES),cleaved PARP positive nuclei fraction [%]
"Cn1cnc2c(F)c(Nc3ccc(Br)cc3Cl)c(C(=O)NOCCO)cc21 [selumetinib] + CCCCCCCCc1ccc(CCC(N)(CO)CO)cc1 [fingolimod] (first compound 0.015 µM, partner dose 2 µM)",34.5
"C[C@]1(O)C[C@@H](c2nc(-c3ccc4ccc(-c5ccccc5)nc4c3)c3c(N)nccn32)C1 + Nc1ccn([C@@H]2O[C@H](CO)[C@@H](O)C2(F)F)c(=O)n1 [gemcitabine] (first compound 0.4 µM, partner dose 0.0004 µM)",281
